The list does not hold the whole screen: it gathers tests that were run many times, whatever their T/C, doses with no T/C, and many T/C values between a quarter and a half above the control. Further doses and runs are listed elsewhere. T/C: endpoint of the treated group in % of that of the vehicle group. Some doses have a count of surviving animals in place of a T/C: the source files T/C as zero there, which appears to mark a toxic dose or a test without result, not a measured value. Some doses without a T/C left all or most animals alive at the check, yet need not have been tolerated: the source hardly ever lists a survival T/C far under the control, and the zero likely stands for such cases as well. Counts of survivors are from the toxicity check (mostly the fifth day) where no day follows; animals may have died later. Schedule codes are those of the source, taken here to give the interval after Q, in days (D) or hours (H), and the number of doses after X. Some entries were tested several times; their values stand side by side, smallest first. Brackets with × give the number of equal values in this list. For survival time, this PubChem deposit counts one and a half times the control or more as active, and values a quarter to a half above the control carry no call in these data; other NCI protocols may use other cut-offs. Some T/C values carry the count of animals alive at the toxicity check (mostly the fifth day); without a count, all were alive then.
System: P388 leukemia ip, CD2F1 mice, survival T/C
Assay: NCI In Vivo Anticancer Drug Screen. Data for tumor model P388 Leukemia (intraperitoneal) in CD2F1 (CDF1) mice
Details: T/C endpoint: median survival time, higher T/C = longer survival
[1] = dose: 100.0 mg/kg/injection, schedule: Q01DX009 (ip), vehicle: saline
[2] = dose: 200.0 mg/kg/injection, schedule: Q04DX003 (ip), vehicle: saline with Tween-80
[3] = dose: 240.0 mg/kg/injection, schedule: Q01DX005 (ip), vehicle: saline with Tween-80
[4] = dose: 25.0 micrograms/kg/injection, schedule: Q01DX009 (ip), vehicle: saline + alcohol
[5] = dose: 50.0 micrograms/kg/injection, schedule: Q01DX009 (ip), vehicle: saline + alcohol
[6] = dose: 200.0 mg/kg/injection, schedule: Q01DX009 (ip), vehicle: saline
[7] = dose: 100.0 mg/kg/injection, schedule: Q04DX003 (ip), vehicle: saline with Tween-80
[8] = dose: 400.0 mg/kg/injection, schedule: Q04DX003 (ip), vehicle: saline with Tween-80

For `CN1C(=O)C2CCCN2C(=O)C1(C)NC(=O)OCc1ccccc1` (stereo unspecified), the survivor count (dose: 50.0 mg/kg/injection, schedule: Q04DX003 (ip), vehicle: suspension in saline) was 6 of 6 and the survivor count (dose: 100.0 mg/kg/injection, schedule: Q04DX003 (ip), vehicle: suspension in saline) was 6 of 6.

In the case of `C=CCNC(=S)NCCN(CCO)C(=S)NCC=C`, the survivor count [1] is reported as 4 of 6.

`CS(C)=NC(=Nc1ccccc1)c1ccccc1` was tested, and the survivor count [2] was 0 of 6.

`CCCCCCCCCCCCCCCC(=O)NCC(=O)NC1C(CO)OC(Nc2ncnc3nc[nH]c23)C(O)C1O` (stereo unspecified) was tested, and the T/C (dose: 0.25 mg/kg/injection, schedule: Q01DX009 (ip), vehicle: water) was 133 % of control, the T/C (dose: 0.5 mg/kg/injection, schedule: Q01DX009 (ip), vehicle: water) was 135 and 137 % of control and the T/C (dose: 1.0 mg/kg/injection, schedule: Q01DX009 (ip), vehicle: water) was 125 % of control. The survivor count (dose: 2.0 mg/kg/injection, schedule: Q01DX009 (ip), vehicle: water) was 6 of 6 and the survivor count (dose: 4.0 mg/kg/injection, schedule: Q01DX009 (ip), vehicle: water) was 6 of 6.

For `COc1c2ccoc2cc2oc(COC3OC(CO)C(O)C(O)C3O)cc(=O)c12` (stereo unspecified), the survivor count (dose: 100.0 mg/kg/injection, schedule: Q01DX005 (ip), vehicle: saline) was 0 of 6 and the survivor count (dose: 200.0 mg/kg/injection, schedule: Q01DX005 (ip), vehicle: saline) was 0 of 6.

In the case of `CC1(O)OC(COc2ccc(Cl)cc2)COC1O` (stereo unspecified), the T/C [3] is reported as 125 % of control.

For `Cc1cc(N=[N+]=[N-])c2ccc(F)cc2n1`, the survivor count [3] was 0 of 6.

`COc1cccc2c1C(=O)C(C1CO1)=CC2=O` (stereo unspecified) was tested, and the survivor count (dose: 50.0 mg/kg/injection, schedule: Q01DX001 (ip), vehicle: Klucel (hydroxypropylcellulose) (HPC)) was 0 of 6, the survivor count (dose: 100.0 mg/kg/injection, schedule: Q01DX001 (ip), vehicle: Klucel (hydroxypropylcellulose) (HPC)) was 0 of 6 and the survivor count (dose: 200.0 mg/kg/injection, schedule: Q01DX001 (ip), vehicle: Klucel (hydroxypropylcellulose) (HPC)) was 0 of 6. The survivor count (dose: 400.0 mg/kg/injection, schedule: Q01DX001 (ip), vehicle: Klucel (hydroxypropylcellulose) (HPC)) was 0 of 6.

For `OC1(c2ccccc2)CCN(c2c3ccccc3nc3ccccc23)CC1`, the T/C (dose: 400.0 mg/kg/injection, schedule: Q04DX002 (ip), vehicle: Klucel (hydroxypropylcellulose) (HPC)) was 128 % of control.

In the case of `Cc1nn(-c2ccc(Cl)cc2)c2c1c(=O)[nH]c1ccccc12`, the survivor count (dose: 30.0 mg/kg/injection, schedule: Q01DX005 (ip), vehicle: saline with Tween-80) is reported as 6 of 6, the survivor count (dose: 60.0 mg/kg/injection, schedule: Q01DX005 (ip), vehicle: saline with Tween-80) is reported as 1 of 6 and the survivor count (dose: 120.0 mg/kg/injection, schedule: Q01DX005 (ip), vehicle: saline with Tween-80) is reported as 0 of 6. The survivor count [3] was 0 of 6.

`CC1(C)CCCC2(C)C1CCC1(C)OC3=CC(=O)C(O)=CC3=CC12` (stereo unspecified) was tested, and the survivor count (dose: 50.0 mg/kg/injection, schedule: Q01DX009 (ip), vehicle: Klucel (hydroxypropylcellulose) (HPC)) was 0 of 6.

In the case of `CSC(=S)/C(=C/Nc1ccccn1)c1ccccc1`, the survivor count (dose: 3.75 mg/kg/injection, schedule: Q01DX005 (ip), vehicle: Klucel (hydroxypropylcellulose) (HPC)) is reported as 6 of 6, the survivor count (dose: 7.5 mg/kg/injection, schedule: Q01DX005 (ip), vehicle: Klucel (hydroxypropylcellulose) (HPC)) is reported as 6 of 6 and the survivor count (dose: 15.0 mg/kg/injection, schedule: Q01DX005 (ip), vehicle: Klucel (hydroxypropylcellulose) (HPC)) is reported as 6 of 6. For the same compound, the survivor count (dose: 30.0 mg/kg/injection, schedule: Q01DX005 (ip), vehicle: Klucel (hydroxypropylcellulose) (HPC)) was 6 of 6, the survivor count (dose: 60.0 mg/kg/injection, schedule: Q01DX005 (ip), vehicle: Klucel (hydroxypropylcellulose) (HPC)) was 6 of 6 and the survivor count (dose: 120.0 mg/kg/injection, schedule: Q01DX005 (ip), vehicle: Klucel (hydroxypropylcellulose) (HPC)) was 6 of 6. For the same compound, the survivor count (dose: 240.0 mg/kg/injection, schedule: Q01DX005 (ip), vehicle: Klucel (hydroxypropylcellulose) (HPC)) was 6 of 6.

For `COc1cc(C=C2C(=O)C=CC2=O)ccc1OCc1ccccc1`, the survivor count (dose: 50.0 mg/kg/injection, schedule: Q04DX002 (ip), vehicle: saline with Tween-80) was 0 of 6 and the survivor count (dose: 100.0 mg/kg/injection, schedule: Q04DX002 (ip), vehicle: saline with Tween-80) was 0 of 6.

With `CCOC(=O)C(N)CSC` (stereo unspecified) the survivor count (dose: 100.0 mg/kg/injection, schedule: Q01DX009 (ip), vehicle: water) was 6 of 6.

`COc1cc2cc(c1Cl)N(C)C(=O)CC(OC(=O)CC(C)C)C1(C)OC1C(C)C1CC(O)(NC(=O)O1)C(OC)/C=C/C=C(C)C2` (stereo unspecified) was tested, and the T/C (dose: 3.1 micrograms/kg/injection, schedule: Q01DX009 (ip), vehicle: saline + alcohol) was 132 % of control, the T/C (dose: 6.3 micrograms/kg/injection, schedule: Q01DX009 (ip), vehicle: saline + alcohol) was 140 % of control and the T/C (dose: 12.5 micrograms/kg/injection, schedule: Q01DX009 (ip), vehicle: saline + alcohol) was 115, 120, 127, 142 % of control. For the same compound, the T/C [4] was 129, 130, 158 % of control, the survivor count [4] was 5 of 6 and the T/C [5] was 124, 133, 178 % of control. The survivor count [5] was 3 of 6, the survivor count (dose: 100.0 micrograms/kg/injection, schedule: Q01DX009 (ip), vehicle: saline + alcohol) was 1 of 6 and the survivor count (dose: 200.0 micrograms/kg/injection, schedule: Q01DX009 (ip), vehicle: saline + alcohol) was 1 of 6 (2×) and 3 of 6.

With `CC(=O)OC1OC(COS(C)(=O)=O)C(OC(C)=O)C(OS(C)(=O)=O)C1OC(C)=O` (stereo unspecified) the survivor count [6] was 6 of 6.

With `Fc1ccc(C(Nc2nncs2)Nc2nncs2)cc1` the T/C (dose: 100.0 mg/kg/injection, schedule: Q01DX005 (ip), vehicle: Klucel (hydroxypropylcellulose) (HPC)) was 127 % of control.

With `C[CH2][Ge]([CH2]C)[CH2]C.C[CH2][Ge]([CH2]C)[CH2]C.C[CH2][Ge]([CH2]C)[O][Ge]([CH2]C)[CH2]C` the T/C (dose: 25.0 mg/kg/injection, schedule: Q01DX009 (ip), vehicle: saline with Tween-80) was 130 % of control, the T/C (dose: 50.0 mg/kg/injection, schedule: Q01DX009 (ip), vehicle: saline with Tween-80) was 133 % of control and the T/C (dose: 100.0 mg/kg/injection, schedule: Q01DX009 (ip), vehicle: saline with Tween-80) was 141 % of control. For the same compound, the survivor count (dose: 200.0 mg/kg/injection, schedule: Q01DX009 (ip), vehicle: saline with Tween-80) was 2 of 6 and the survivor count (dose: 400.0 mg/kg/injection, schedule: Q01DX009 (ip), vehicle: saline with Tween-80) was 0 of 6.

With `COc1cccc(C[n+]2ccccc2C#N)c1` the survivor count [1] was 1 of 6 and the survivor count [6] was 0 of 6.

`C[CH2][Hg][S]c1nsc([S][Hg][CH2]C)n1` was tested, and the T/C (dose: 25.0 mg/kg/injection, schedule: Q01DX009 (ip), vehicle: Klucel (hydroxypropylcellulose) (HPC)) was 128 and 130 % of control [5 of 6 alive].

For `COc1cc(N=Nc2ccccc2)cc(/C=N\NC(=S)Nc2cccc(C)c2)c1O`, the survivor count (dose: 100.0 mg/kg/injection, schedule: Q01DX005 (ip), vehicle: saline with Tween-80) was 3 of 6 and the survivor count (dose: 200.0 mg/kg/injection, schedule: Q01DX005 (ip), vehicle: saline with Tween-80) was 0 of 6.

With `NC(N)=O.NC(N)=O.NC(N)=O.NC(N)=O.NC(N)=O.NC(N)=O.[O-][Cl+3]([O-])([O-])O.[V]` the survivor count [7] was 6 of 6, the survivor count [2] was 6 of 6 and the survivor count [8] was 1 of 6.

`CC(C)c1ccc([C](C)(CC(C)(C)C)[Sn]([CH3])([CH3])[CH3])cc1` (stereo unspecified) was tested, and the survivor count (dose: 12.5 mg/kg/injection, schedule: Q04DX003 (ip), vehicle: Klucel (hydroxypropylcellulose) (HPC)) was 3 of 6, the survivor count (dose: 25.0 mg/kg/injection, schedule: Q04DX003 (ip), vehicle: Klucel (hydroxypropylcellulose) (HPC)) was 1 of 6 and the survivor count (dose: 50.0 mg/kg/injection, schedule: Q04DX003 (ip), vehicle: Klucel (hydroxypropylcellulose) (HPC)) was 0 of 6.

With `O=[n+]1c2c(n([O-])c3cc(Cl)c(Cl)cc31)CCC2` the survivor count [3] was 6 of 6.

With `CC(=O)CC(=O)c1ccc(C)cc1.CC(=O)CC(=O)c1ccc(C)cc1.[Ni]` the survivor count (dose: 12.5 mg/kg/injection, schedule: Q01DX005 (ip), vehicle: saline with Tween-80) was 4 of 5, the survivor count (dose: 25.0 mg/kg/injection, schedule: Q01DX005 (ip), vehicle: saline with Tween-80) was 5 of 5 and the survivor count [7] was 3 of 6 and 3 of 5. For the same compound, the survivor count [2] was 2 of 6 and the survivor count [8] was 0 of 6.

Source: PubChem BioAssay AID330 (DTP/NCI, 2004)
